Reference: PubChem BioAssay AID504444 (National Center for Advancing Translational Sciences (NCATS), 2011)
About 7,500 (2.1%) of roughly 360,000 compounds were called active. Inconclusive means that the source gave no clear call. Such entries were picked first, then a sample of the others. Calls follow the shape of the dose curve; as a rule, active = well fitted inhibition curve with a large enough effect; inconclusive = small, poorly fitted or top-dose-only effect, or effect the other way; inactive = flat fitted curve, though single readings scatter. Potencies of inconclusive entries are doubtful fits and often do not repeat.

Experiment: Nrf2 qHTS screen for inhibitors; also: nearly all actives have a fitted effect of over 60% in size
Conditions: A549 ARE-Fluc reporter, luciferase luminescence, 18-24 h; activity change, negative = inhibition: at 46 µM (top of the series)
Summary of the method: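 Nrf2 activity is the BugLite luminescence, read 15 min after reagent at room temperature, following CellTiter-Fluor cytotoxicity readout (30 min, 37C). Compound titrations were applied for 18-24 h to 5000 A549 ARE_Fluc cells/well in 5% FBS OPTI-MEM.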
% is scaled to controls: 0 for no effect and ±100 for the full control effect; potency is read from the fitted curve at half-maximal effect.

For `C[C@H]1COC(=O)[C@H](Cc2ccc(F)cc2)CC/C=C/C[C@@H](CC(=O)N(CCO)Cc2ccccc2)C(=O)N1`, which “activity change, negative = inhibition” value is on record?
Its value is inactive: -5.67%.

For `CCCCN(CCCNC(=O)c1cc(Nc2ccc(OC)c(OC)c2)nc2ccccc12)c1ccccc1`, which “activity change, negative = inhibition” value is on record?
The value was inactive: 6.45%.

For `O=c1c2ccccc2c(C=Nc2cccc(O)c2)c(O)n1-c1ccc2c(c1)OCO2`, which Potency is on record?
The Potency was inconclusive: 18.4 µM [falling, single point].

With `Cc1ccccc1C(=O)Nc1ccc(C(=O)N/N=C/c2ccncc2)cc1` as the compound, how does the Potency read?
Its Potency is inconclusive: 25.9 µM [falling, partial curve, poor fit].

For `Cc1cc(Cl)ccc1NC(=S)NCc1ccc(F)cc1`, which Potency is on record?
The Potency was inconclusive: 25.9 µM [falling, single point].

Which Potency does the source give for `Cc1ccc2ccc(S(=O)(=O)NCc3ccco3)cc2c1` here?
Its Potency is inconclusive: 20.6 µM [activator, partial curve, poor fit].

With `CCC(C)NC(=O)C1CCCN(S(=O)(=O)c2ccc3c(c2)CC(C)N3C(C)=O)C1` (centres undefined) as the compound, how does the Potency read?
The Potency was inconclusive: 29.1 µM [falling, single point].

For `O=C(NCc1ccccc1F)c1cccc(S(=O)(=O)N2CCCCCC2)c1`, which Potency is on record?
Its Potency is inconclusive: 9.2 µM [falling, partial curve, poor fit].

Which “activity change, negative = inhibition” value does the source give for `COc1cc(Cl)c(C)cc1NC(=O)C(OC(=O)CNC(=O)c1ccccc1)c1ccccc1` (centres undefined) here?
Its value is inactive: 15.2%.

With `Cc1ccc(NC(=O)C2CCN(c3ncnc4sc(C)c(C)c34)CC2)cc1S(=O)(=O)N(C)C` as the compound, how does the Potency read?
The Potency was active: 23.1 µM.

With `S=C(NCc1ccccc1)Nc1ccc(Oc2ccccc2)cc1` as the compound, how does the Potency read?
Its Potency is inconclusive: 29.1 µM [falling, single point].

With `Cc1ccc(NC(=O)c2ccc(Cl)cc2Cl)cc1O` as the compound, how does the Potency read?
The Potency was inconclusive: 32.6 µM [activator, single point].

With `COC(=O)C1=C(C(=O)OC)N2C=CC=CC2(C)C(C(=O)OC)=C1C(=O)OC` (centres undefined) as the compound, how does the “activity change, negative = inhibition” value read?
Its value is inactive: -5.58%.

For `COc1ccc(C(=O)Nc2cc(-c3nc4ccccc4s3)ccc2OC)cc1`, which Potency is on record?
Its Potency is inconclusive: 20.6 µM [activator, partial curve, poor fit].

For `CCOC(=O)C1=C(Nc2ccccc2)CC(C)(O)C(C(=O)OCC)C1c1ccc(Cl)cc1` (centres undefined), which Potency is on record?
Its Potency is inconclusive: 20.6 µM [falling, single point].

For `CCCCNC(=O)NNC(=O)c1cc(C)on1`, which “activity change, negative = inhibition” value is on record?
Its value is inactive: -12.8%.

Which “activity change, negative = inhibition” value does the source give for `NCCCC[C@@H]1NC(=O)[C@H](CCC(=O)O)NC(=O)c2cc([N+](=O)[O-])cc(I)c2SC[C@@H](C(=O)NCC(N)=O)NC1=O` here?
Its value is inactive: 0.737%.

For `C=Cc1ccc(Cn2c(C(=O)O)c(CNC3CCCCC3)c3ccc(OC)cc32)cc1`, which Potency is on record?
The Potency was inconclusive: 25.9 µM [activator, single point].

Which Potency does the source give for `CCCOC1(C(F)(F)F)NC(=O)N(c2cccc(Cl)c2)C1=O` (centres undefined) here?
The Potency was inconclusive: 20.6 µM [falling, single point].

With `O=C(/C=C/c1ccco1)NC(=S)Nc1ccccc1` as the compound, how does the Potency read?
The Potency was inconclusive: 13 µM [activator, partial curve].

For `Cc1ccc(S(=O)(=O)NCCOC(=O)Nc2sc(=S)n(C)c2C)cc1`, which “activity change, negative = inhibition” value is on record?
The value was inactive: -7.42%.

For `CCCSc1nc2c([nH]1)c(=O)n(C)c(=S)n2C`, which Potency is on record?
The Potency was inconclusive: 14.6 µM [falling, single point].

Which Potency does the source give for `CCN(C(=O)C(C)Sc1ccc(S(=O)(=O)N2CCOCC2)cn1)c1ccccc1` (centres undefined) here?
Its Potency is inconclusive: 0.206 µM [falling, full curve, poor fit].

Which “activity change, negative = inhibition” value does the source give for `CCNc1nc(C)cc(COC)c1C#N` here?
The value was inactive: 1.44%.

Which “activity change, negative = inhibition” value does the source give for `CCCN1CCN(CC2=C(C(=O)OCC)C(c3ccc(OC(C)C)cc3)NC(=O)N2)CC1` (centres undefined) here?
Its value is inactive: 8.95%.

Which Potency does the source give for `CCN(C(=S)NCc1ccccc1)c1cccc2ccccc12` here?
Its Potency is inconclusive: 32.6 µM [falling, single point].

With `O=C(CN1CCN(C(=O)c2ccccc2)CC1)NC(=O)NCCC1=CCCCC1` as the compound, how does the Potency read?
The Potency was inconclusive: 4.11 µM [activator, single point].

Which Potency does the source give for `O=C(N/N=C/C(Br)=C/c1ccccc1)C1CC1` here?
Its Potency is inconclusive: 10.3 µM [activator, partial curve, poor fit].

With `C/C(=N\NC(=O)c1ccccc1)c1cccc(Br)c1` as the compound, how does the Potency read?
Its Potency is inconclusive: 2.31 µM [activator, partial curve, poor fit].

With `COc1ccccc1Cn1c(=S)[nH]c2cc(C(=O)NCC3CCCO3)ccc2c1=O` (centres undefined) as the compound, how does the Potency read?
The Potency was inconclusive: 25.9 µM [falling, single point].

With `Cc1ccc(O)c(NC(=O)c2ccc3c(c2)C(=O)N(CC(C)C)C3=O)c1` as the compound, how does the “activity change, negative = inhibition” value read?
The value was inactive: 17.9%.

Which Potency does the source give for `CN(C)c1ccc(N2CC(C)(C)C2=O)cc1` here?
The Potency was inconclusive: 2.59 µM [activator, partial curve, poor fit].

For `CCN(CC)c1nc(C#N)cc(-c2ccc(OC)cc2)n1`, which Potency is on record?
The Potency was inconclusive: 7.31 µM [falling, partial curve, poor fit].

For `O=C(NCCc1ccccc1)c1ccc(Cn2c(SCc3ccccc3F)nc3cccnc32)cc1`, which Potency is on record?
The Potency was inconclusive: 8.2 µM [falling, partial curve].

With `O=C(NC(=S)NCCC1=CCCCC1)c1ccc(Br)o1` as the compound, how does the Potency read?
The Potency was inconclusive: 29.1 µM [activator, single point].

For `CCCN1CN=C(NS(=O)(=O)c2ccc(NC(C)=O)cc2)NC1`, which “activity change, negative = inhibition” value is on record?
The value was inactive: 0.228%.

Which “activity change, negative = inhibition” value does the source give for `CCOC(=O)CN1C(c2ccc(O)cc2)Nc2ccc(Br)cc2C1c1ccccc1` (centres undefined) here?
The value was inactive: -15.4%.

For `CCn1c(=O)c(C(=O)NCc2ccccc2)c(O)c2ccccc21`, which Potency is on record?
Its Potency is inconclusive: 0.651 µM [falling, full curve, poor fit].

For `CC(=O)N1N=C(c2c(-c3ccccc3)c3cc(C)ccc3[nH]c2=O)CC1c1ccco1` (centres undefined), which Potency is on record?
Its Potency is inconclusive: 20.6 µM [falling, single point].

Which “activity change, negative = inhibition” value does the source give for `O=S(=O)(c1cc(C(F)(F)F)ccc1Cl)N1CCCCCC1` here?
The value was inactive: -2.41%.

Which Potency does the source give for `O=[N+]([O-])c1ccc(CS(=O)(=O)N2CCN(c3ccccc3)CC2)cc1` here?
Its Potency is inconclusive: 4.61 µM [activator, full curve].

For `COc1ccc(Nc2nc(N3CCCCC3)nc(N3CCCCC3)n2)c(OC)c1`, which Potency is on record?
The Potency was inconclusive: 3.26 µM [activator, full curve, poor fit].

For `Cc1nc2ccccc2c2oc(C(=O)N3CCN(c4ccc([N+](=O)[O-])cc4)CC3)cc12`, which “activity change, negative = inhibition” value is on record?
Its value is inactive: -7.88%.

Which Potency does the source give for `C[C@@]12C(=O)N(c3cccc(Cl)c3)C(=O)N1[C@H](c1ccc(Cl)cc1)[C@@H]1C(=O)N(C3CCCCC3)C(=O)[C@@H]12` here?
The Potency was inconclusive: 25.9 µM [falling, single point].
